We go through 1 compound from paper PMC10120462, “Styrylquinazoline derivatives as ABL inhibitors selective for different DFG orientations” (Journal of Enzyme Inhibition and Medicinal Chemistry, 2023).

Common to all, as to type: cell-based
In one assay the test system is A549. Put plainly: Cytotoxicity studies (MTS), antiproliferative activity. As to conditions: Homo sapiens, 72 h. From the text: (§1) In contrast, the other cell lines studied represent common cancers found in the human population. Nevertheless, these cell lines are characterised by a different landscape of kinase expression, as reported in[36]. In chronic leukaemia cells, an aberration of the Philadelphia chromosome is common in which a fragment of chromosome 9 is displaced to chromosome 22, leading to the formation of the oncogenic protein BCR-ABL. The altered structure of the protein leads to abnormal activity that promotes excessive growth and differentiation of cells even in the absence of growth factors, as well as inhibition of apoptosis and formation of metastases. Moreover, the status of the TP53 gene in leukaemia is not insignificant. Mutations of the TP53 gene occur in more than 50% of all cancers, leading to increased metastasis and an overall poor prognosis[38]^,[39]. The p53 protein encoded by this gene plays a pivotal role in controlling cell division or cell fate when damage is detected. […] Therefore, interaction between the signalling network of the BCR-ABL pathway and p53 often results in an impairment of p53 function and survival[43]^,[44]. […] Selectivity studies were performed on normal human fibroblast – NHDF cell line.
(§2) M. Rusin from the Maria Sklodowska-Curie Memorial Cancer Centre and Institute of Oncology in Gliwice, Poland. […] G. Kramer-Marek from the Institute of Cancer Research in London, United Kingdom. The human suspension chronic myeloids leukaemia cell line K562 and the pancreatic ductal adenocarcinoma cell line PANC-1 were purchased from Merck. The normal human dermal fibroblasts cell line NHDF were obtained from PromoCell. All adherent cancer cell lines were cultured in Dulbecco’s Modified Eagle’s medium (DMEM) supplemented with 10% heat-inactivated foetal bovine serum – FBS (all from Merck). […] Each complete medium contained a mixture of two antibiotics - penicillin and streptomycin (1% v/v; Gibco). Cell lines were cultured at 37 °C with 5% CO2 humidified atmosphere.
(§3) The assay was carried out after 72 h of incubation with different concentrations of the tested compounds. Then DMEM without phenol red was added to each well with CellTiter 96®AQueous One Solution-MTS (Promega) solution and incubated for 1 h or 3 h (PANC-1) at 37 °C. The optical densities of the samples were measured at 490 nm using a multi-plate reader (Synergy 4, BioTek). […] Each compound was tested in triplicate in a single experiment and each experiment was performed three or four times.

Another assay relates to HCT 116 p53+/+. The description is as above. As to conditions: Homo sapiens, 72 h.
Text: as §1, §2, §3

In a further assay the test system is HCT 116 p53−/−. Described as above. The settings on record: Homo sapiens, 72 h.
Text: as §1, §2, §3

In the next assay the test system is K562. The assay is described as above. As to conditions: Homo sapiens, 72 h.
Text: as §1, §2, §3

A further assay has as its system MCF-7. The assay is described as above. The settings on record: Homo sapiens, MCF7, 72 h.
Text: as §1, §2, §3

The test system of another assay is PANC-1. The assay is described as above. The settings on record: Homo sapiens, 72 h.
Text: as §1, §2, §3

Another assay relates to U-251. Described as above. As to conditions: Homo sapiens, 72 h.
Text: as §1, §2, §3

A further assay deals with NHDF. Put plainly: Cytotoxicity studies (MTS), normal fibroblasts. As to conditions: 72 h, normal human fibroblasts, read-out: Antiproliferative activity IC50 NHDF. As for the experimental part: The antiproliferative properties of all synthesised compounds were tested on a panel of seven different human cancer cell types, including chronic myeloid leukaemia cells (K562) with p53 and ABL protein mutations and solid tumours, such as pancreatic ductal adenocarcinoma (PANC-1), wild type colon carcinoma (HCT 116 p53^+/+) and a mutant with a deletion of the TP53 gene (HCT 116 p53^-/-), lung cancer (A549), breast cancer (MCF-7) and glioblastoma (U-251). Glioblastoma is the most aggressive cancer and has a poor prognosis and short survival after application of available treatments. In contrast, the other cell lines studied represent common cancers found in the human population. Nevertheless, these cell lines are characterised by a different landscape of kinase expression, as reported in[36]. In chronic leukaemia cells, an aberration of the Philadelphia chromosome is common in which a fragment of chromosome 9 is displaced to chromosome 22, leading to the formation of the oncogenic protein BCR-ABL. The altered structure of the protein leads to abnormal activity that promotes excessive growth and differentiation of cells even in the absence of growth factors, as well as inhibition of apoptosis and formation of metastases. […] The p53 protein encoded by this gene plays a pivotal role in controlling cell division or cell fate when damage is detected. […]

SMILES strings stand for the structures. Bounds are passed on as bounds.

`Cc1ccc(NC(=O)c2ccc(CN3CCN(C)CC3)cc2)cc1Nc1nccc(-c2cccnc2)n1` [Imatinib, imatinib, reference compound]: the half-maximal inhibitory concentration (IC50) was > 25 µM with A549; 44.6 ± 2.41 µM in the assay with HCT 116 p53+/+; 51.2 ± 4.09 µM in the assay with HCT 116 p53−/−; 0.133 ± 0.03 µM in the assay with K562; > 25 µM with MCF-7; > 25 µM in the assay with PANC-1. The 50% inhibitory concentration (IC50) in the assay with U-251 and in the assay on NHDF was > 25 µM throughout.

As a reminder, the IC50 is the concentration needed to halve the response being measured.
